{"sequences": {"note": "The chains behind the UniProt entries cited, without tags or fusion partners. Where a name states a change or a piece, a line headed by the entry shows the natural chain unless it says otherwise.", "UniProt A1X283": "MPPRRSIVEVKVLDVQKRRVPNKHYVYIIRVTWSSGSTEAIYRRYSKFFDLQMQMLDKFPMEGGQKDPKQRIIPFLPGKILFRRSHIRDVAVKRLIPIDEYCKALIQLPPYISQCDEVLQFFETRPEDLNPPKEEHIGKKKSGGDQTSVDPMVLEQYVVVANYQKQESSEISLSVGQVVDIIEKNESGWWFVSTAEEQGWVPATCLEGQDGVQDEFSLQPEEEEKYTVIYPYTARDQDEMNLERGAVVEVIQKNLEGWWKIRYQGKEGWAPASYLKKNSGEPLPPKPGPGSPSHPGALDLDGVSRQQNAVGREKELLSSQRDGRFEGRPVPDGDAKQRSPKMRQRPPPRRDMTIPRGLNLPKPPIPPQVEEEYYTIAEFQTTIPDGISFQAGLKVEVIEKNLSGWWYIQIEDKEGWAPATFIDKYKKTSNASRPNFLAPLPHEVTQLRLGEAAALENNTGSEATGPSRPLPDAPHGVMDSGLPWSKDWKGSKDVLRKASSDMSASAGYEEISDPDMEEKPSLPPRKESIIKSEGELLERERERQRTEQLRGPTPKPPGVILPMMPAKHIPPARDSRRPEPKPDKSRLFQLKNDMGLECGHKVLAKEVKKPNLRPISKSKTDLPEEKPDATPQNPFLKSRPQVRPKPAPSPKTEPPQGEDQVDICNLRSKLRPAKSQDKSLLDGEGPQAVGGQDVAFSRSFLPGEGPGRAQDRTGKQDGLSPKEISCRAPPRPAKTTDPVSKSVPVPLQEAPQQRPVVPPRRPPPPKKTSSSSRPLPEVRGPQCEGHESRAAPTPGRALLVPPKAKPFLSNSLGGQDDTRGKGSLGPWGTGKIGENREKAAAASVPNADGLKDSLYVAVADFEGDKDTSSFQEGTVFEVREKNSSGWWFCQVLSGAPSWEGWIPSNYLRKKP", "UniProt A5PLN9": "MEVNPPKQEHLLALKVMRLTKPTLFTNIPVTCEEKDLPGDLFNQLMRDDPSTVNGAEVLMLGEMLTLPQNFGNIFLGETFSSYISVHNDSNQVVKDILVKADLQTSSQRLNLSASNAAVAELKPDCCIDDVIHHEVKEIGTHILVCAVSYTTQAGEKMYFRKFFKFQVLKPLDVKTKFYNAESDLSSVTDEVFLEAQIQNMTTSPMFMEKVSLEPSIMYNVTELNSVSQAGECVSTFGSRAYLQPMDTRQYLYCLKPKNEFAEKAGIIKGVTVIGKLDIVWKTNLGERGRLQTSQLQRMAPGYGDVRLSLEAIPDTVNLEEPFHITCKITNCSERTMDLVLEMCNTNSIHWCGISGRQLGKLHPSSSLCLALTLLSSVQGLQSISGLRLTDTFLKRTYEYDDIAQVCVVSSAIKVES", "UniProt A1L4K1": "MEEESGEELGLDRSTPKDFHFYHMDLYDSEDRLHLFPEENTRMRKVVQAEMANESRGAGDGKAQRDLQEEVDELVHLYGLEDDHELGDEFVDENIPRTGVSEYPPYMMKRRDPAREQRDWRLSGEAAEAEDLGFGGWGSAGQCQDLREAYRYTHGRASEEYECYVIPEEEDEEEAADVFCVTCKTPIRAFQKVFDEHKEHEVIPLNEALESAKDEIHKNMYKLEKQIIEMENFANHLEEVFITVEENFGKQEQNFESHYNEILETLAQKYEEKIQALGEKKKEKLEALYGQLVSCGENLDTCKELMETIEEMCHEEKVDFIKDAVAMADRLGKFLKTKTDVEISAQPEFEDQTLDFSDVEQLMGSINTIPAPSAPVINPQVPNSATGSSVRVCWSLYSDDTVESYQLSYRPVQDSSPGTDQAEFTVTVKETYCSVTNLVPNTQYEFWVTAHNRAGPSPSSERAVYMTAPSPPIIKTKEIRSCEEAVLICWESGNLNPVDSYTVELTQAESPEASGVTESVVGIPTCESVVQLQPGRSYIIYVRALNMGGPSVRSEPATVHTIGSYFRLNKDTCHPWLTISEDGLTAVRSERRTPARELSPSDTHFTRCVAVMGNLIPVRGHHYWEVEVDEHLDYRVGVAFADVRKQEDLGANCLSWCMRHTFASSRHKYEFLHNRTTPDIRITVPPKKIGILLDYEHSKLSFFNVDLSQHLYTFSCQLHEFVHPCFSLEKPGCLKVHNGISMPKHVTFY", "UniProt A0JNW5": "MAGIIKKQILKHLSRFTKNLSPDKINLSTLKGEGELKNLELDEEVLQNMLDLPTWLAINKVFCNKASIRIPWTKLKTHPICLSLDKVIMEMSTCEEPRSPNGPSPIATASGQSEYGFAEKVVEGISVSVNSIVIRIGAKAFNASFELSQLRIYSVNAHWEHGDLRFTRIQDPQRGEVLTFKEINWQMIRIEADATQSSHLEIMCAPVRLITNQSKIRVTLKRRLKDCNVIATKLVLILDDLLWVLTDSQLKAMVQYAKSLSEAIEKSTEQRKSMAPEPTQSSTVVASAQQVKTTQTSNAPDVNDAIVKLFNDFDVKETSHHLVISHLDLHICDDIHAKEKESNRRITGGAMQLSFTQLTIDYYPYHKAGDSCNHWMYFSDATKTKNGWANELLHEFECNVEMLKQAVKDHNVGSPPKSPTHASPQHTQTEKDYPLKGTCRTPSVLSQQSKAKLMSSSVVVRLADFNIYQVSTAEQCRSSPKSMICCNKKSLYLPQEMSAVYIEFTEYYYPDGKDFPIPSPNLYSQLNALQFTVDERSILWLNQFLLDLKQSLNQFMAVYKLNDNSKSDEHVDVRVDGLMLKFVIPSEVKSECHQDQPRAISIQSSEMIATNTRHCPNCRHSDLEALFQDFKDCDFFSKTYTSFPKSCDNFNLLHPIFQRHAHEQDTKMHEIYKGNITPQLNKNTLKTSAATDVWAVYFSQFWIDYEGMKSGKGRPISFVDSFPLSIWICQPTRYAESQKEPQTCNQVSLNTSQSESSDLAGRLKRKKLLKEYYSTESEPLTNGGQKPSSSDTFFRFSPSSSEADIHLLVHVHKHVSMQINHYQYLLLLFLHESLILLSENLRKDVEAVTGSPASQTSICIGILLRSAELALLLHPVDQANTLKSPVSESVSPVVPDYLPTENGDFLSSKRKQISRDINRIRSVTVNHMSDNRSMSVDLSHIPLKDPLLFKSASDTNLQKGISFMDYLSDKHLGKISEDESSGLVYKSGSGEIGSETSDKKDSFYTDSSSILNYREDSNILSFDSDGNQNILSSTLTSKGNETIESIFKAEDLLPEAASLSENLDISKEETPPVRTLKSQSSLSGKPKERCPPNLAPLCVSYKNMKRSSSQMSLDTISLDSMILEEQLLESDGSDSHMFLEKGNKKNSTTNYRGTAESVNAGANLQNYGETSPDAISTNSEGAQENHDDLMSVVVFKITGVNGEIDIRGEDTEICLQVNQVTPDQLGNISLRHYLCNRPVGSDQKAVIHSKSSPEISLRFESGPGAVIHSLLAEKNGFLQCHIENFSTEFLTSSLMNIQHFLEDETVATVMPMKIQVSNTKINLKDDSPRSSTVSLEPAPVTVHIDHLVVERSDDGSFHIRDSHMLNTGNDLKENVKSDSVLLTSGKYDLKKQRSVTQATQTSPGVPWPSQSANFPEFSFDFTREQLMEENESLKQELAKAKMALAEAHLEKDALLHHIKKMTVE", "UniProt A6NCL7": "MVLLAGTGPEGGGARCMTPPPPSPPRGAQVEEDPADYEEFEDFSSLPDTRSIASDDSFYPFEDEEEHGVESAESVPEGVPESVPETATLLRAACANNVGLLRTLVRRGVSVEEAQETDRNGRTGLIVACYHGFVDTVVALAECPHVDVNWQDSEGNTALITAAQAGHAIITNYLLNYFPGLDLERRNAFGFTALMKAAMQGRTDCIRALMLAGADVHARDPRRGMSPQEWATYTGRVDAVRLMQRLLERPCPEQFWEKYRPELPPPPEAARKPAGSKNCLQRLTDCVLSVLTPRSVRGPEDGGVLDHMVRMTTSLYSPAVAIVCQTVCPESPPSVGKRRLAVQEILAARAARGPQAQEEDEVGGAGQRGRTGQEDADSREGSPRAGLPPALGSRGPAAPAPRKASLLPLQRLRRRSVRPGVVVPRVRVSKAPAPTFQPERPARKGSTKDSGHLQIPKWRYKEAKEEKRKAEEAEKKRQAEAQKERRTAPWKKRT", "UniProt A6NER0": "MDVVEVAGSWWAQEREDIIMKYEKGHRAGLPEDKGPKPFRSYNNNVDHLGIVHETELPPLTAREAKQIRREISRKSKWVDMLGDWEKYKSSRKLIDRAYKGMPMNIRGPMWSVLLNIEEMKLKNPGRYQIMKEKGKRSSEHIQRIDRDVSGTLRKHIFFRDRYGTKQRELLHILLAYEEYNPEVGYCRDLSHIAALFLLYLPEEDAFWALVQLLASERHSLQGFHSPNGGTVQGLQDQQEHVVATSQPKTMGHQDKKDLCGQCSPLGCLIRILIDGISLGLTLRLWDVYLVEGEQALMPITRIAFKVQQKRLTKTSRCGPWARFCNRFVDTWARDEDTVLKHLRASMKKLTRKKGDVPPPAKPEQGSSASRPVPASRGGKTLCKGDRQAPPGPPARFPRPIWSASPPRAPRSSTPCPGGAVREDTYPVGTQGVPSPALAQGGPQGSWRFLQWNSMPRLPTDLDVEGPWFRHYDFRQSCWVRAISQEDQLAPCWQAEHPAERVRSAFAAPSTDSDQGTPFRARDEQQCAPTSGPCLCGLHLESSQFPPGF"}, "source": "the supplement of paper PMC12819154", "about": "“High-throughput peptide-centric local stability assay extends protein–ligand identification to membrane proteins, tissues and bacteria” (Nature Structural & Molecular Biology, 2025)", "compound": "CN[C@@H]1C[C@H]2O[C@@](C)([C@@H]1OC)n1c3ccccc3c3c4c(c5c6ccccc6n2c5c31)C(=O)NC4 [staurosporine]", "test": "log2 fold change of tryptic peptide abundance, ligand vs vehicle (limited proteolysis) (log2 ratio); higher = more trypsin-susceptible (destabilized)", "settings": "ligand concentration: 20 uM; sample: K562 cleared lysate; digestion: 4 min, 22 C (HT-PELSA RT4min, Orbitrap Astral)", "note": "Some of the results follow. Most entries show no effect beyond the scatter of the controls."}
{"target": "SH3PXD2B (peptide sequence: SFLPGEGPGR, peptide start residue: 699) (UniProt A1X283)", "values": [{"measurement": "log2 fold change", "result": -0.179}]}
{"target": "A0A3B3IU46 (peptide sequence: SNQWHGR, peptide start residue: 79), A0A3B3IU46", "values": [{"measurement": "log2 fold change", "result": -0.192}]}
{"target": "UniProt A5PLN9 (peptide sequence: LQTSQLQR, peptide start residue: 291)", "values": [{"measurement": "log2 fold change", "result": 0.114}]}
{"target": "UniProt A1L4K1 (peptide sequence: HTFASSRHK, peptide start residue: 660)", "values": [{"measurement": "log2 fold change", "result": 0.108}]}
{"target": "A0A1W2PR95 (peptide sequence: AREWDDWK, peptide start residue: 318), A0A1W2PR95", "values": [{"measurement": "log2 fold change", "result": -0.257}]}
{"target": "A0AUZ9 (peptide sequence: EILTPSWR, peptide start residue: 884)", "values": [{"measurement": "log2 fold change", "result": -0.291}]}
{"target": "UHRF1BP1L (peptide sequence: GISFMDYLSDKHLGK, peptide start residue: 960) (UniProt A0JNW5)", "values": [{"measurement": "log2 fold change", "result": -0.51}]}
{"target": "UniProt A6NCL7 (peptide sequence: EAKEEKR, peptide start residue: 462)", "values": [{"measurement": "log2 fold change", "result": -0.108}]}
{"target": "A0A6I8PU40 (peptide sequence: AAAYAFAIR, peptide start residue: 65), A0A6I8PU40", "values": [{"measurement": "log2 fold change", "result": -0.129}]}
{"target": "UniProt A6NER0 (peptide sequence: KKGDVPPPAK, peptide start residue: 353)", "values": [{"measurement": "log2 fold change", "result": -0.15}]}
{"target": "A0AVK6 (peptide sequence: KLEVSTEDVH, peptide start residue: 858)", "values": [{"measurement": "log2 fold change", "result": 0.691}]}
